Measurements from patent US9056108B2, “Method of treating atrial fibrillation” (Gilead Sciences, Inc., priority 2009, dated 2015).
Entries after “also recorded” stand apart in the source; their conditions may differ. At least one compound was matched to its structure with a doubt left.

Key:
[1] = system: ACh-mediated persistent AF in isolated canine coronary-perfused right atria; experiment: Acetylcholine (ACh)-mediated persistent AF model in coronary-perfused right atria; conditions: ranolazine 5 μM, dronedarone 10 μM; for Termination Persistent AF (atria terminated/atria tested): ACh 1 μM-mediated persistent AF; for Prevention of AF re-induction (atria): after termination of ACh-mediated AF; for Induction of Persistent AF (atria with AF/atria tested): in presence of ACh 1 μM
Method: To assess the anti-AF potential of ranolazine, dronedarone, and their combination, we used an acetylcholine (ACh, 1.0 μM)-mediated AF model. In the presence of ACh, premature electrical stimulation (PES) or rapid pacing (CL=50-80 ms) induces persistent AF in 100% of canine coronary-perfused right atrial preparations.^9 The effect of the drugs was assessed to prevent (series 1) the induction of AF. In a separate set of preparations, the ability of these agents was evaluated to terminate (series 2) persistent AF. In the first series, ACh was added to the perfusate 20-30 min after the start of perfusion with 5 μM ranolazine, 10 μM dronedarone, or the combination of these agents. This was followed by attempts to induce the arrhythmia electrically. In the second series, the agents were added to the perfusate during ACh-mediated persistent AF (on the 5-6th minutes after the start of the arrhythmia). In cases in which the drug terminated AF, we attempted to re-induce the arrhythmia with rapid pacing.

[2] = system: AV nodal conduction in guinea pig isolated hearts; experiment: AV nodal conduction (S-H interval, Wenckebach cycle length) in guinea pig isolated hearts; conditions: pacing rate of 3, 4 and 5 Hz; dronedarone 0.3 μM, ranolazine 3 μM
[3] = system: single myocytes isolated from guinea pig left ventricles; experiment: Isoproterenol-induced delayed after-depolarizations in single guinea pig left ventricular myocytes; assay type: cell-based; conditions: Iso 50 nM; dronedarone 30 and 100 nM; ranolazine 3 and 6 μM; combination 100 nM + 3 μM
[4] = system: isolated canine coronary-perfused right atria; experiment: Electrophysiology in isolated coronary-perfused canine right atrial preparations; conditions: ranolazine 5 μM, dronedarone 10 μM; for Effect on APD50 in atria / Effect on APD90 / repolarization in atria / Effect on ERP in atria (post-repolarization refractoriness): CL 500 ms; for Effect on Vmax in atria / Effect on conduction time in atria (duration of P wave): CL of 500 ms; for Effect on atrial conduction time: CL=300 ms; for Effect on DTE in atria: pacing CLs of 500 and 300 ms
Method: Experiments were performed using isolated coronary-perfused canine right atrial (RA) and left ventricular (LV) preparations (≈3×1.5×1 cm). Isolation and perfusion of the preparations were as previously described.^9, 15, 16 Briefly, preparations were dissected from hearts removed from anesthetized (sodium pentobarbital) adult mongrel dogs (20-30 kg). Unfolded RA with attached rim of the right ventricle was cannulated and perfused with cold cardioplegic solution (4-8° C.) through the ostium of the right coronary artery; the LV wedge was perfused through a diagonal branch of the left anterior descending coronary artery. Unperfused tissue was removed with a razor blade. Cut ventricular and atrial branches were ligated using silk thread. The preparations were then transferred to a temperature-controlled bath and arterially-perfused with Tyrode's solution by use of a roller pump. The composition of the Tyrode's solution was (in mM): NaCl 129, KCl 4, NaH2PO4 0.9, NaHCO3 20, CaCl2 1.8, MgSO4 0.5, and D-glucose 5.5, buffered with 95% O2 and 5% CO2 (37±0.5° C., pH=7.35)
Transmembrane action potential (AP) recordings were obtained using floating glass microelectrodes at a sampling rate of 40 kHz. A pseudo-electrocardiogram (ECG) was recorded using two electrodes consisting of Ag/AgCl half cells placed in the Tyrode's solution bathing the preparation, 1.0 to 1.5 cm from the two opposite sides of the atrial or ventricular coronary-perfused preparations. Conduction time was approximated by the duration of “P wave” in atria and “QRS complex” in ventricles, at a level representing 10% of “P wave” and “QRS” amplitude. Diastolic threshold of excitation (DTE) was determined by increasing stimulus intensity in 0.01 mA steps. Effective refractory period (ERP) was measured by delivering premature stimuli at progressively shorter S1-S2 intervals after every 10 basic beats at a pacing cycle length (CL) of 500 ms (5 ms steps; 2 times DTE). Post-repolarization refractoriness (PRR) was recognized when ERP exceeded action potential duration measured at 90% repolarization (APD90) in the ventricle and APD measured at 70% repolarization (APD70) in atria. Ventricular ERP was coincident with APD90, whereas atrial ERP was generally coincident with APD70-75.^9 The shortest S1-S1 permitting 1:1 activation was measured by progressively shortening pacing CL starting from a CL of 500 ms.
Stable AP recordings could not be readily obtained in the vigorously contracting perfused preparations. The largest recorded maximum rate of rise of the AP upstroke (Vmax) values per experimental condition were taken for statistical comparison. Only APs having amplitudes of at least 100 mV were considered in the analysis. The largest Vmax criterion was used because this was associated with the largest amplitude and the most negative resting membrane potential, depicting full or near full impalement. In determining use-dependent depression of Vmax, values were normalized to the Vmax value at a CL of 500 ms for each experiment and then averaged.
Because of their dependence on peak INa, Vmax, DTE, PRR, and conduction time as well the shortest S1-S1 interval permitting 1:1 activation are referred to as INa-dependent parameters.
The equilibration period for the coronary-perfused preparations was 30-120 min. The preparations were exposed to 5 μM ranolazine, 10 μM dronedarone (after 30 min washout of ranolazine), and the combination of these agents for at a period of at least 20 min. In time-control experiments, 20 minutes was sufficient to achieve steady-state in the effects of each of the drugs to alter electrophysiologic parameters. Recordings were obtained at a cycle length (CL) of 500 and 300 ms, unless otherwise indicated. […] When determining the shortest S1-S1 pacing rate permitting 1:1 activation, the stimulation intensity was DTE x 2, determined at a CL of 500 ms.

[5] = system: canine pulmonary vein (PV) sleeve preparations; experiment: Superfused pulmonary vein (PV) sleeve preparations; conditions: ranolazine 5 μM; for DADs and triggered activity: 20 beats train of rapid pacing plus isoproterenol and/or high calcium; for DADs and triggered activity / DAD-induced triggered activity (FIG. 11): dronedarone 10 μM; for DAD-induced triggered activity (FIG. 12) / DAD-induced triggered activity (FIG. 11): isoproterenol 1 μM and high calcium 5.4 mM; for DAD-induced triggered activity (FIG. 12): dronedarone 5 μM, BCL=150 ms; for DAD-induced triggered activity (FIG. 11): BCL=120 ms
Method: Pulmonary vein (PV) sleeve preparations (approximately 2.0×1.5 cm) were isolated from left canine atria. The thickness of the preparation was approximately 2 mm. […] The preparations were placed in a small tissue bath and superfused with Tyrode's solution of the following composition (mM): 129 NaCl, 4 KCl, 0.9 NaH2PO4, 20 NaHCO3, 1.8 CaCl2, 0.5 MgSO4, 5.5 glucose, buffered with 95% O2/5% CO2 (35±0.5° C.). The PV preparations were stimulated at a basic cycle length (BCL) of 1000 ms during the equilibration period (1 h) using electrical pulses (1-3 ms duration, 2.5 times diastolic threshold intensity) delivered through silver bipolar electrodes insulated except at the tips. Transmembrane potentials were recorded (at a sampling rate of 40 kHz) using glass microelectrodes filled with 3 M KCl (10-20 MΩ DC resistance) connected to a high input-impedance amplification system (World Precision Instruments, model KS-700, New Haven, Conn.). The following parameters were measured: DTE, Vmax, and shortest S1-S1 permitting 1:1 activation. Acetylcholine (ACh, 1 μM), isoproterenol (1 μM), high calcium or their combination were used to induce late phase 3 EADs, DADs and triggered activity.

| SMILES | Termination Persistent AF (atria terminated/atria tested) [1] | Prevention of AF re-induction (atria) [1] | Induction of Persistent AF (atria with AF/atria tested) [1] | Prevention of induction of sustained/persistent AF (atria) ([1]; pretreatment, then ACh 1 μM) | Effect on S-H interval [2] | Amplitude of isoproterenol-induced DADs [3] | Effect on APD50 in atria [4] | Effect on APD90 / repolarization in atria [4] | Effect on ERP in atria (post-repolarization refractoriness) [4] | Effect on Vmax in atria [4] | Effect on conduction time in atria (duration of P wave) [4] | Effect on atrial conduction time [4] | Effect on DTE in atria [4] | Effect on shortest S1-S1 interval permitting 1:1 activation in atria [4] | DADs and triggered activity [5] | DAD-induced triggered activity (FIG. 12) [5] | DAD-induced triggered activity (FIG. 11) [5] |
| --- | --- | --- | --- | --- | --- | --- | --- | --- | --- | --- | --- | --- | --- | --- | --- | --- | --- |
| CCCCc1oc2ccc(NS(C)(=O)=O)cc2c1C(=O)c1ccc(OCCCN(CCCC)CCCC)cc1 [Dronedarone, N-(2-Butyl-3-(p-(3-(dibutylamino)propoxy)benzoyl)-5-benzofuranyl)methanesulfonamide] | not effective; also recorded: (1/6) | (0/1) | (5/6) | not effective | small but significant increase | reduced the amplitude | reaching statistical significance for abbreviation of APD50 in CT | abbreviated repolarization | prolonged ERP more than APD70 | reduced | not altered significantly | not by dronedarone | not significantly affected | not by dronedarone | reduced | reduces the number of triggered responses | eliminates the triggered response but a DAD persists |
| COc1ccccc1OCC(O)CN1CCN(CC(=O)Nc2c(C)cccc2C)CC1 (racemic) [Ranolazine, (±)-N-(2,6-dimethylphenyl)-4-[2-hydroxy-3-(2-methoxyphenoxy)-propyl]-1-piperazineacetamide] | 1 out of 5 and (1/5) | (1/1) | (5/7) |  | small but significant increase | reduced the amplitude | not altered | moderately prolonged | prolonged ERP more than APD70 | reduced | not altered significantly | statistically significantly increased | not significantly affected | increased | reduced | eliminates triggered beats but a DAD persists | eliminates the triggered beat but a prominent DAD persists |
